Results are given in words; binding and its absence hold for the method and conditions named. In cells and extracts the contact can be indirect. Some binding calls cover weakened binding; strength is not graded here.
Biological target: human secretin receptor (human) (UniProt P47872)
Experiment: FRET or BRET; competitive binding at one concentration: 10,000 CHO-K1 cells with SNAPtag-hSR labelled with Lumi4-Tb, 500 nM labelled hSCT (h[Gly28, Alexa-Cys29]SCT) as acceptor, 10 μM unlabelled peptide, 4–8°C, 1 h, 384-well plates; only the binder purified

Amino acid sequences for entries named in this document (tags omitted). Residues count along the entry.
UniProt P47872, residues 23-440: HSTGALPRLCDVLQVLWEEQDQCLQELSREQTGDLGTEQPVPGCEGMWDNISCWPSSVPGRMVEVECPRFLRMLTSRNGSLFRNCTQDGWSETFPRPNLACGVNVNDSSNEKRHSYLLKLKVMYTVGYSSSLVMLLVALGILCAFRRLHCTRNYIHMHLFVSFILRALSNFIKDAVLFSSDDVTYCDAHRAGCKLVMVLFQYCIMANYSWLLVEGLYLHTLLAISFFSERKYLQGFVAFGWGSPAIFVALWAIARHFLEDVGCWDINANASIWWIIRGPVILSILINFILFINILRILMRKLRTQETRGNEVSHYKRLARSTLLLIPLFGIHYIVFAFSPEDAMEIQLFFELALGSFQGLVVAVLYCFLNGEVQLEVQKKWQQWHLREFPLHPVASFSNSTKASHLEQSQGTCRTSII

Binder	binding
HSDFTFTSELSRLREGARLQRLLQGLV (p-Cl,D-Phe at 4) [h[(p-Cl,D-Phe^4]SCT]	no binding (tested: 10 μM)
REGARLQRLLQGLV [Ct-SCT]	no binding (tested: 10 μM)
HSFGTFTSELSRLREGARLQRLLQGLV (pCO2H-Phe at 3) [h[pCO2H-Phe^3]SCT]	no binding (tested: 10 μM)
ASDGTFTSELSRLREGARLQRLLQGLV [h[Ala^1]SCT]	no binding (tested: 10 μM)
HVDGRFTSEFSRARGSAAIRKIINSALA [Xenopus SCT]	no binding (tested: 10 μM)
FTSELSRLREGARLQRLLQGLV [hSCT_((6–27))]	no binding (tested: 10 μM)
HVDGLFTSELSKLRGSAVARSFTNAVL [Coelacanths SCT]	no binding (tested: 10 μM)
LSDGTFTSELSRLREGARLQRLLQGLV [h[Leu^1]SCT]	no binding (tested: 10 μM)
HSDYTFTSELSRLREGARLQRLLQGLV [h[Tyr^4]SCT]	no binding (tested: 10 μM)
HSDGTFTSELSRL [Nt-SCT]	no binding (tested: 10 μM)
HPDGTFTSELSRLREGARLQRLLQGLV [h[Pro^2]SCT]	no binding (tested: 10 μM)
HSDGTFTSELSRLREGARLQRLLQGLVGC (Alexa Fluor 488 C5 maleimide on Cys29) [h[Gly^28, Alexa-Cys^29]SCT]	binds
HSDPTFTSELSRLREGARLQRLLQGLV [h[Pro^4]SCT]	no binding (tested: 10 μM)
HSDGLFTSEYSKMRGNAQVQKFIQNLM [Chicken SCT]	no binding (tested: 10 μM)

— article PMC4773067 (PLoS ONE, 2016)
